Laboratory results reported in patent publication US20030170326A1, “Bioavailability enchancing activity of Zingiber officinale Linn and its extracts/fractions thereof” (COUNCIL OF SCIENTIFIC AND INDUSTRIAL RESEARCH, priority 2001, published 2003).

Assay: Bioavailability enhancement of a drug/nutraceutical/herbal product given with bioenhancer (BE) to fasted rats; plasma drug level by HPLC, 0-24 hrs
Details: drug + BE from Zingiber officinale (extract 30 mg/kg or fraction No 1 15 mg/kg)

With `CCn1cc(C(=O)O)c(=O)c2cc(F)c(N3CCN(C)CC3)cc21` [P-floxacin, Pefloxacin] the “% Enhancement in bioavailability, BE from Zingiber officinale” value was 53%.
